No constants are given. Whether binding was seen depends on the method and setting. In cells and extracts the contact can be indirect. Some entries that bind do so weakly or less than the wild type.
Legend:
[1] = target: pcDNA4.0-HBc 45-183aa (hepatitis B virus (cDNA of HepG2.2.15 cells)) (UniProt P03146); test: co-IP; HepG2 cells transfected with His-HBc or His-tagged serial HBc deletion mutants (Figure 3C bottom: cotransfected with PCH9/3091 plasmids)
[2] = target: pcDNA4.0-HBc-wt (hepatitis B virus (cDNA of HepG2.2.15 cells)) (UniProt P03146); test: as above
[3] = target: HBc (endogenous, HepG2.2.15 cells) (hepatitis B virus (expressed in HepG2.2.15 cells)) (UniProt P03146); test: co-IP; endogenous PCNA and HBc in HepG2.2.15 cells

By UniProt entry, the sequences of proteins in these tests, tags left out. Where a name states a change or a piece, a line headed by the entry shows the natural chain unless it says otherwise. Residues count along the entry.
UniProt P03146: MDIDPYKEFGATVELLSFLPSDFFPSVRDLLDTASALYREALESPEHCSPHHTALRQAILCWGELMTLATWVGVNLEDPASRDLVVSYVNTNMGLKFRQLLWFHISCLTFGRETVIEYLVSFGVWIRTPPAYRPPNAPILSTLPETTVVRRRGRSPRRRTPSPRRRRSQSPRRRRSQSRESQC
pcDNA4.0-HBc 45-183aa (hepatitis B virus (cDNA of HepG2.2.15 cells)): residues 45-183 of P03146
UniProt P12004: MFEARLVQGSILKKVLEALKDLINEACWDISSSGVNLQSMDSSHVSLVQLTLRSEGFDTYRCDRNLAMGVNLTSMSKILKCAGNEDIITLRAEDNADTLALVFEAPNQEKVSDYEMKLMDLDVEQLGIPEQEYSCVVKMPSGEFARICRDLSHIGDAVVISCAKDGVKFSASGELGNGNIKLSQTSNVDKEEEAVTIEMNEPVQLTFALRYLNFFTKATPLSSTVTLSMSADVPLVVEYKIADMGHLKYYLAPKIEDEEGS

Measured: binding

PCNA (from UniProt P12004 1-261)
binds: all assays above

Reference: publication PMC6691589
